# The supplement of paper PMC8728848
# Some of the results follow.
# B1: SJCP1084 (Schistosoma japonicum) (protein)
# chain: MRIINLVIISTALLLINLLQTKSQANGEDTKNGTPDDPGLTKSTELKVEVQALLKDKKTNMRVKWNENLLDNTKPEYHNLRDEACELLLQIVRSVVPLSQDDGECKDVTFTKYVVGTKDGAVNVKLTITFKDSVAINQKPMDLKLKLENDFKNLQSESTLKATKPTFTVKVEKRLIPISKPQTTPPTTAKNDASKENVGDIGGEDSTVPTAAPATAASANEEKDEGDKDNKDSQHPNVLTSNVNDRNLIIALVALMILAIGVALTAAVKQR
# Experiments:
# Experiment in all cases: glycan array binding signal (z-score within array); higher = stronger binding
# Details in all cases: glycan notation: IUPAC condensed, linker removed
# [1] = molecular target: Fuc(a1-2)[Gal(a1-3)]Gal(b1-4)GlcNAc(b1-2)Man(a1-3)[Fuc(a1-2)[Gal(a1-3)]Gal(b1-4)GlcNAc(b1-2)Man(a1-6)]Man(b1-4)GlcNAc(b1-4)[Fuc(a1-6)]GlcNAc
# Summary of the method: (§1)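 The binding signal is a Z-score computed within each array. Data were drawn from 3228 arrays in the Consortium for Functional Glycomics database, restricted to those with a known protein sequence. Scores were averaged over arrays of the same protein sequence at different concentrations or buffers, and over linkers, and negative values can be taken as non-binding.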
# [2] = molecular target: Fuc(a1-2)[Gal(a1-3)]Gal(b1-4)GlcNAc(b1-3)GalNAc
# Summary of the method: as §1
# [3] = molecular target: Fuc(a1-2)[Gal(a1-3)]Gal(b1-4)GlcNAc(b1-3)[Fuc(a1-2)[Gal(a1-3)]Gal(b1-4)GlcNAc(b1-6)]GalNAc
# Summary of the method: as §1
# [4] = molecular target: Fuc(a1-2)[Gal(a1-3)]Gal(b1-4)GlcNAc(b1-6)GalNAc
# Summary of the method: as §1
# [5] = molecular target: Fuc(a1-2)[Gal(a1-3)]Gal(b1-4)[Fuc(a1-3)]Glc
# Summary of the method: as §1
# [6] = molecular target: Fuc(a1-2)[Gal(a1-3)]Gal(b1-4)[Fuc(a1-3)]GlcNAc
# Summary of the method: as §1
# [7] = molecular target: Fuc(a1-2)[Gal(a1-3)]Gal(b1-4)[Fuc(a1-3)]GlcNAc(b1-3)GalNAc
# Summary of the method: as §1
# [8] = molecular target: Fuc(a1-2)[Gal(a1-4)]Gal(b1-4)GlcNAc
# Summary of the method: as §1
# [9] = molecular target: Fuc(a1-2)[GalNAc(a1-3)]Gal
# Summary of the method: as §1
# [10] = molecular target: Fuc(a1-2)[GalNAc(a1-3)]Gal(b1-3)GalNAc(a1-3)[Fuc(a1-2)]Gal(b1-4)GlcNAc
# Summary of the method: as §1
# [11] = molecular target: Fuc(a1-2)[GalNAc(a1-3)]Gal(b1-3)GalNAc(b1-3)Gal(a1-4)Gal(b1-4)Glc
# Summary of the method: as §1
# [12] = molecular target: Fuc(a1-2)[GalNAc(a1-3)]Gal(b1-3)GlcNAc
# Summary of the method: as §1
# [13] = molecular target: Fuc(a1-2)[GalNAc(a1-3)]Gal(b1-3)GlcNAc(b1-2)Man(a1-3)[Fuc(a1-2)[GalNAc(a1-3)]Gal(b1-3)GlcNAc(b1-2)Man(a1-6)]Man(b1-4)GlcNAc(b1-4)GlcNAc
# Summary of the method: as §1
# [14] = molecular target: Fuc(a1-2)[GalNAc(a1-3)]Gal(b1-3)GlcNAc(b1-2)Man(a1-3)[Fuc(a1-2)[GalNAc(a1-3)]Gal(b1-3)GlcNAc(b1-2)Man(a1-6)]Man(b1-4)GlcNAc(b1-4)[Fuc(a1-6)]GlcNAc
# Summary of the method: as §1
# [15] = molecular target: Fuc(a1-2)[GalNAc(a1-3)]Gal(b1-3)GlcNAc(b1-3)GalNAc
# Summary of the method: as §1
# [16] = molecular target: Fuc(a1-2)[GalNAc(a1-3)]Gal(b1-3)GlcNAc(b1-6)GalNAc
# Summary of the method: as §1
# [17] = molecular target: Fuc(a1-2)[GalNAc(a1-3)]Gal(b1-4)Glc
# Summary of the method: as §1
# [18] = molecular target: Fuc(a1-2)[GalNAc(a1-3)]Gal(b1-4)GlcNAc
# Summary of the method: as §1
# [19] = molecular target: Fuc(a1-2)[GalNAc(a1-3)]Gal(b1-4)GlcNAc(b1-2)Man
# Summary of the method: as §1
# [20] = molecular target: Fuc(a1-2)[GalNAc(a1-3)]Gal(b1-4)GlcNAc(b1-2)Man(a1-3)[Fuc(a1-2)[GalNAc(a1-3)]Gal(b1-4)GlcNAc(b1-2)Man(a1-6)]Man(b1-4)GlcNAc(b1-4)GlcNAc
# Summary of the method: as §1
# [21] = molecular target: Fuc(a1-2)[GalNAc(a1-3)]Gal(b1-4)GlcNAc(b1-2)Man(a1-3)[Fuc(a1-2)[GalNAc(a1-3)]Gal(b1-4)GlcNAc(b1-2)Man(a1-6)]Man(b1-4)GlcNAc(b1-4)[Fuc(a1-6)]GlcNAc
# Summary of the method: as §1
# [22] = molecular target: Fuc(a1-2)[GalNAc(a1-3)]Gal(b1-4)GlcNAc(b1-3)Gal(b1-4)GlcNAc
# Summary of the method: as §1
# [23] = molecular target: Fuc(a1-2)[GalNAc(a1-3)]Gal(b1-4)GlcNAc(b1-3)Gal(b1-4)GlcNAc(b1-3)Gal(b1-4)GlcNAc
# Summary of the method: as §1
# [24] = molecular target: Fuc(a1-2)[GalNAc(a1-3)]Gal(b1-4)GlcNAc(b1-3)GalNAc
# Summary of the method: as §1
# [25] = molecular target: Fuc(a1-2)[GalNAc(a1-3)]Gal(b1-4)GlcNAc(b1-3)[Fuc(a1-2)[GalNAc(a1-3)]Gal(b1-4)GlcNAc(b1-6)]GalNAc
# Summary of the method: as §1
# [26] = molecular target: Fuc(a1-2)[GalNAc(a1-3)]Gal(b1-4)GlcNAc(b1-6)GalNAc
# Summary of the method: as §1
# [27] = molecular target: Fuc(a1-2)[GalNAc(a1-3)]Gal(b1-4)[Fuc(a1-3)]GlcNAc
# Summary of the method: as §1
# [28] = molecular target: Fuc(a1-2)[GalNAc(a1-3)]Gal(b1-4)[Fuc(a1-3)]GlcNAc(b1-3)GalNAc
# Summary of the method: as §1
# [29] = molecular target: Fuc(a1-2)[GalNAc(a1-4)]Gal(b1-4)GlcNAc
# Summary of the method: as §1
# [30] = molecular target: Fuc(a1-2)[GalNAc(b1-3)]Gal
# Summary of the method: as §1
# Fuc(a1-3)GlcNAc = molecular target: Fuc(a1-3)GlcNAc
# Summary of the method: as §1
# [31] = molecular target: Fuc(a1-3)[Gal(b1-4)]Glc6S
# Summary of the method: as §1
# [32] = molecular target: Fuc(a1-3)[Gal(b1-4)]GlcNAc
# Summary of the method: as §1
# [33] = molecular target: Fuc(a1-3)[Gal(b1-4)]GlcNAc(b1-2)Man
# Summary of the method: as §1
# [34] = molecular target: Fuc(a1-3)[Gal(b1-4)]GlcNAc(b1-2)Man(a1-3)[Fuc(a1-3)[Gal(b1-4)]GlcNAc(b1-2)Man(a1-6)]Man(b1-4)GlcNAc(b1-4)GlcNAc
# Summary of the method: as §1
# [35] = molecular target: Fuc(a1-3)[Gal(b1-4)]GlcNAc(b1-2)Man(a1-3)[Fuc(a1-3)[Gal(b1-4)]GlcNAc(b1-2)Man(a1-6)]Man(b1-4)GlcNAc(b1-4)[Fuc(a1-6)]GlcNAc
# Summary of the method: as §1
# [36] = molecular target: Fuc(a1-3)[Gal(b1-4)]GlcNAc(b1-3)Gal(b1-3)[Fuc(a1-4)]GlcNAc
# Summary of the method: as §1
binder,measurement,setting,value
B1,glycan array binding signal (z-score),[1],0.955
same,glycan array binding signal (z-score),[2],-0.455
same,glycan array binding signal (z-score),[3],0.833
same,glycan array binding signal (z-score),[4],-1.88
same,glycan array binding signal (z-score),[5],-0.164
same,glycan array binding signal (z-score),[6],0.332
same,glycan array binding signal (z-score),[7],-0.005
same,glycan array binding signal (z-score),[8],2.61
same,glycan array binding signal (z-score),[9],0.405
same,glycan array binding signal (z-score),[10],-0.717
same,glycan array binding signal (z-score),[11],-1.18
same,glycan array binding signal (z-score),[12],0.643
same,glycan array binding signal (z-score),[13],0.364
same,glycan array binding signal (z-score),[14],-0.324
same,glycan array binding signal (z-score),[15],2.68
same,glycan array binding signal (z-score),[16],-0.94
same,glycan array binding signal (z-score),[17],-0.402
same,glycan array binding signal (z-score),[18],-0.655
same,glycan array binding signal (z-score),[19],-0.749
same,glycan array binding signal (z-score),[20],0.359
same,glycan array binding signal (z-score),[21],-0.506
same,glycan array binding signal (z-score),[22],-0.749
same,glycan array binding signal (z-score),[23],0.783
same,glycan array binding signal (z-score),[24],-1.18
same,glycan array binding signal (z-score),[25],0.142
same,glycan array binding signal (z-score),[26],-1.16
same,glycan array binding signal (z-score),[27],0.073
same,glycan array binding signal (z-score),[28],-0.545
same,glycan array binding signal (z-score),[29],-0.296
same,glycan array binding signal (z-score),[30],-0.223
same,glycan array binding signal (z-score),Fuc(a1-3)GlcNAc,-1.16
same,glycan array binding signal (z-score),[31],-0.662
same,glycan array binding signal (z-score),[32],-0.416
same,glycan array binding signal (z-score),[33],0.155
same,glycan array binding signal (z-score),[34],-1.61
same,glycan array binding signal (z-score),[35],1.19
same,glycan array binding signal (z-score),[36],-0.378

# Taken from above (two entries):
binder,measurement,setting,value
B1,glycan array binding signal (z-score),Fuc(a1-3)GlcNAc,-1.16
same,glycan array binding signal (z-score),[31],-0.662
